The list is a part of this screen's results and no random one: it gathers tests that were run many times, whatever their T/C, doses with no T/C, and many T/C values between a quarter and a half above the control. Further doses and runs are listed elsewhere. T/C gives the treated animals as a percentage of the vehicle group. Some doses have a count of surviving animals in place of a T/C: the source holds a T/C of zero for them, seemingly a mark for toxic or unscored doses. Some survivor counts are full or nearly so, which does not show that the dose was tolerated: survival well below the control is almost never listed, so the zero probably covers shortened survival too. Survivors were counted at the toxicity check, usually on the fifth day, unless a day is given; later deaths do not show. Schedules are NCI's codes, read here as Q, the interval in days (D) or hours (H), X, the number of doses. Some entries hold several experiments; their values stand side by side, smallest first. For survival time, this PubChem deposit counts one and a half times the control or more as active, and values a quarter to a half above the control carry no call in these data; other NCI protocols may use other cut-offs. Some T/C values carry the count of animals alive at the toxicity check (mostly the fifth day); where none is given, no animal had died by that day.
Tested on: BDF1 mice, P388 leukemia ip, median survival T/C
Assay: NCI In Vivo Anticancer Drug Screen. Data for tumor model P388 Leukemia (intraperitoneal) in B6D2F1 (BDF1) mice
Conditions: T/C endpoint: median survival time, higher T/C = longer survival
Summary of the method: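 Vehicle-dosed animals serve as the reference; survival of compound-dosed, tumour-implanted mice is divided by it.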

[1] = dose: 400.0 mg/kg/injection, schedule: Q01DX009 (ip), vehicle: saline
[2] = dose: 100.0 mg/kg/injection, schedule: Q01DX009 (ip), vehicle: Klucel (hydroxypropylcellulose) (HPC)
[3] = dose: 200.0 mg/kg/injection, schedule: Q01DX009 (ip), vehicle: Klucel (hydroxypropylcellulose) (HPC)
[4] = dose: 400.0 mg/kg/injection, schedule: Q04DX003 (ip), vehicle: saline with Tween-80
[5] = dose: 100.0 mg/kg/injection, schedule: Q01DX009 (ip), vehicle: saline
[6] = dose: 200.0 mg/kg/injection, schedule: Q01DX009 (ip), vehicle: saline
[7] = dose: 400.0 mg/kg/injection, schedule: Q04DX003 (ip), vehicle: saline
[8] = dose: 200.0 mg/kg/injection, schedule: Q04DX003 (ip), vehicle: water

Q: What does the source list for `COc1cc(C=Nc2cccc(Br)c2)ccc1N(CCCl)CCCl`?
A: T/C (dose: 18.7 mg/kg/injection, schedule: Q04DX003 (ip), vehicle: saline with Tween-80): 145 % of control; survivor count (dose: 50.0 mg/kg/injection, schedule: Q04DX003 (ip), vehicle: other): 3 of 6; survivor count (dose: 100.0 mg/kg/injection, schedule: Q04DX003 (ip), vehicle: other): 0 of 6; survivor count (dose: 200.0 mg/kg/injection, schedule: Q01DX009 (ip), vehicle: saline sonified): 5 of 6; survivor count (dose: 400.0 mg/kg/injection, schedule: Q01DX009 (ip), vehicle: saline sonified): 1 of 6

Q: For `C[C@H](CCC(=O)O)[C@H]1CC[C@H]2[C@@H]3[C@H](O)C[C@@H]4C[C@H](O)CC[C@]4(C)[C@H]3C[C@H](O)[C@]12C` (tested in a mixture with another compound), which T/C (dose: 100.0 mg/kg/injection, schedule: Q01DX009 (ip), vehicle: other) is on record?
A: 131 % of control

Q: What about the T/C (dose: 198.0 mg/kg/injection, schedule: Q04DX003 (ip), vehicle: saline sonified) of the same compound?
A: 144 % of control

Q: And the survivor count (dose: 300.0 mg/kg/injection, schedule: Q01DX009 (ip), vehicle: saline)?
A: 2 of 6

Q: And the survivor count (dose: 400.0 mg/kg/injection, schedule: Q01DX009 (ip), vehicle: other)?
A: 3 of 6

Q: And the survivor count [1]?
A: 2 of 6

Q: With `C[N+]1(C)CCCC1` as the compound, how does the survivor count (dose: 25.0 mg/kg/injection, schedule: Q04DX003 (ip), vehicle: saline) read?
A: 0 of 6

Q: How did the survivor count (dose: 50.0 mg/kg/injection, schedule: Q01DX009 (ip), vehicle: saline) turn out when `CC(C)=CC(=O)OCC[N+](C)(C)C` was run?
A: 0 of 6

Q: Which results are given for `O=CN(c1ccccc1)c1ccccc1`?
A: T/C (dose: 265.0 mg/kg/injection, schedule: Q04DX003 (ip), vehicle: saline with Tween-80): 125 % of control; T/C (dose: 400.0 mg/kg/injection, schedule: Q04DX003 (ip), vehicle: other): 141 % of control [5 of 6 alive]

Q: With `CCOC(=O)c1ccc(NC(=O)Nc2nncs2)cc1` as the compound, how does the T/C (dose: 25.0 mg/kg/injection, schedule: Q01DX009 (ip), vehicle: distilled water + Tween-80) read?
A: 136 % of control

Q: And the T/C (dose: 50.0 mg/kg/injection, schedule: Q01DX009 (ip), vehicle: distilled water + Tween-80)?
A: 136 % of control

Q: And the survivor count (dose: 100.0 mg/kg/injection, schedule: Q01DX009 (ip), vehicle: distilled water + Tween-80)?
A: 6 of 6

Q: And the survivor count (dose: 200.0 mg/kg/injection, schedule: Q01DX009 (ip), vehicle: distilled water + Tween-80)?
A: 6 of 6

Q: What about the survivor count (dose: 400.0 mg/kg/injection, schedule: Q01DX009 (ip), vehicle: distilled water + Tween-80) of the same compound?
A: 4 of 6

Q: With `C(=C\c1cccnc1)/c1ccncc1` as the compound, how does the T/C (dose: 50.0 mg/kg/injection, schedule: Q01DX009 (ip), vehicle: Klucel (hydroxypropylcellulose) (HPC)) read?
A: 133 % of control

Q: And the T/C [2]?
A: 144 % of control

Q: What about the survivor count [3] of the same compound?
A: 0 of 6

Q: What about the survivor count (dose: 400.0 mg/kg/injection, schedule: Q04DX003 (ip), vehicle: Klucel (hydroxypropylcellulose) (HPC)) of the same compound?
A: 0 of 6

Q: For `COc1ccc(N=O)c(O)c1`, which T/C (dose: 100.0 mg/kg/injection, schedule: Q01DX010 (ip), vehicle: carboxymethylcellulose (CMC)) is on record?
A: 145 % of control

Q: What about the survivor count [3] of the same compound?
A: 1 of 6 and 2 of 6

Q: And the survivor count (dose: 200.0 mg/kg/injection, schedule: Q01DX010 (ip), vehicle: carboxymethylcellulose (CMC))?
A: 0 of 6

Q: What about the survivor count (dose: 200.0 mg/kg/injection, schedule: Q04DX003 (ip), vehicle: Klucel (hydroxypropylcellulose) (HPC)) of the same compound?
A: 4 of 6

Q: Which survivor count (dose: 3.12 mg/kg/injection, schedule: Q01DX009 (ip), vehicle: Klucel (hydroxypropylcellulose) (HPC)) does the source give for `CCOP(=O)(OCC)ON1C(=O)c2cccc3cccc(c23)C1=O` here?
A: 6 of 6

Q: With `COC(=O)C(CSCSC)NC(=O)/C=C\c1ccccc1` (stereo not drawn) as the compound, how does the survivor count [4] read?
A: 6 of 6

Q: For `O=C(c1ccccc1)C1C(c2ccccc2)C2(CCCCC2=O)C(c2ccccc2)CC1(O)c1ccccc1` (stereo not drawn), which survivor count (dose: 50.0 mg/kg/injection, schedule: Q01DX001 (ip), vehicle: Klucel (hydroxypropylcellulose) (HPC)) is on record?
A: 6 of 6

Q: And the survivor count (dose: 100.0 mg/kg/injection, schedule: Q01DX001 (ip), vehicle: Klucel (hydroxypropylcellulose) (HPC))?
A: 6 of 6

Q: With `Nc1ccc(OCc2ccccc2)cc1` as the compound, how does the survivor count (dose: 50.0 mg/kg/injection, schedule: Q01DX009 (ip), vehicle: saline with Tween-80) read?
A: 6 of 6

Q: And the survivor count (dose: 100.0 mg/kg/injection, schedule: Q01DX009 (ip), vehicle: saline with Tween-80)?
A: 5 of 6

Q: How did the survivor count [1] turn out when `O=C1OC2C(I)C3CCC2C1C3` (stereo not drawn) was run?
A: 5 of 6

Q: How did the T/C (dose: 88.0 mg/kg/injection, schedule: Q01DX009 (ip), vehicle: saline) turn out when `C1CNC2NCCNC2N1` (stereo not drawn) was run?
A: 140 % of control

Q: And the T/C [5]?
A: 136 % of control

Q: And the T/C (dose: 100.0 mg/kg/injection, schedule: Q04DX003 (ip), vehicle: saline)?
A: 125 % of control

Q: What about the T/C [6] of the same compound?
A: 136 and 147 % of control

Q: What about the T/C [7] of the same compound?
A: 135 % of control

Q: `CC1CC/C(=N\N(C)C)c2ccccc21` (stereo not drawn) was tested. Which T/C (dose: 100.0 mg/kg/injection, schedule: Q04DX003 (ip), vehicle: saline with Tween-80) did it give?
A: 141 % of control

Q: And the T/C (dose: 150.0 mg/kg/injection, schedule: Q04DX003 (ip), vehicle: saline with Tween-80)?
A: 127 % of control

Q: What about the T/C (dose: 200.0 mg/kg/injection, schedule: Q04DX003 (ip), vehicle: saline with Tween-80) of the same compound?
A: 133 % of control

Q: With `O=NO.O=N[O-].O=N[O-].[Co+3].[NH-]CC[N-]CCO.[NH-]CC[N-]CCO` as the compound, how does the survivor count (dose: 100.0 mg/kg/injection, schedule: Q01DX009 (ip), vehicle: water) read?
A: 2 of 6

Q: What about the survivor count [8] of the same compound?
A: 1 of 6

Q: For `C=CC(C)(C)c1cc2cc3c(cc2oc1=O)OC(C(C)(C)OC(C)=O)C3` (stereo not drawn), which survivor count [7] is on record?
A: 5 of 6

Q: How did the survivor count [8] turn out when `CS(=O)(=O)c1ncc2cnccn12` was run?
A: 5 of 6

Q: What about the survivor count (dose: 400.0 mg/kg/injection, schedule: Q04DX003 (ip), vehicle: water) of the same compound?
A: 2 of 6

Q: For `NNC(=O)NC(=O)NN`, which survivor count (dose: 6.25 mg/kg/injection, schedule: Q01DX009 (ip), vehicle: saline) is on record?
A: 6 of 6

Q: And the survivor count (dose: 12.5 mg/kg/injection, schedule: Q01DX009 (ip), vehicle: saline)?
A: 6 of 6

Q: What about the survivor count (dose: 25.0 mg/kg/injection, schedule: Q01DX009 (ip), vehicle: saline) of the same compound?
A: 6 of 6

Q: What about the survivor count [5] of the same compound?
A: 5 of 6

Q: And the survivor count [6]?
A: 0 of 6

Q: And the survivor count [7]?
A: 4 of 6

Q: Which survivor count (dose: 200.0 mg/kg/injection, schedule: Q01DX009 (ip), vehicle: saline with Tween-80) does the source give for `CCNC(C)(C)C(O)c1ccc(Cl)s1` (stereo not drawn) here?
A: 3 of 6

Q: What about the survivor count (dose: 300.0 mg/kg/injection, schedule: Q01DX009 (ip), vehicle: saline with Tween-80) of the same compound?
A: 1 of 6

Q: What about the survivor count [4] of the same compound?
A: 2 of 6

Q: `CC(Br)(C(Br)c1ccccc1)[N+](=O)[O-]` (stereo not drawn) was tested. Which survivor count [2] did it give?
A: 2 of 6

Q: What about the survivor count [3] of the same compound?
A: 0 of 6

From PubChem BioAssay AID328 (DTP/NCI, 2004)
